The series in a line: peptide made by a vendor (peptide synthesis; 2-Chlorotrityl chloride resin). To be noted: whole synthesis, HPLC, amino acid analysis, mass spectroscopy, acetate salt.

HELM strings list residues between dots; [ac] is acetyl, [am] amide, other brackets name non-standard units.

For the substance “PEPTIDE1{[dT].[dT].[dN].[dY].[dT]}$$$$V2.0”, the “final purity (method not given)” value turned out to be 98.8%.

Source of the values: US20240252583A1 (priority 2021, published 2024).
